{
  "source": "PubChem BioAssay AID652180",
  "about": "(National Center for Advancing Translational Sciences (NCATS), 2013)",
  "note": "Inconclusive means that the source gave no clear call. Such entries were picked first, then a sample of the others. Potencies of inconclusive entries are doubtful fits and often do not repeat. The source made the active and inactive calls. Calls follow the shape of the dose curve; as a rule, active = well fitted inhibition curve with a large enough effect; inconclusive = small, poorly fitted or top-dose-only effect; inactive = no such curve, though single readings can be large or run the other way.",
  "data": [
    {"assay": "qHTS Assay for Lipid Storage Modulators: 3T3L1 Assay against Probe and Analogs", "conditions": "3T3-L1 lipid droplets, BODIPY imaging, oleic acid, 18-24 h; activity change, negative = decreased lipid storage: at 46.1 µM (top of the series)", "excerpt": "Storing lipids as a reservoir for energy or the anabolism of elementary metabolites is a common feature of probably all cells and is conserved from bacteria to humans. The universal cellular lipid storage organelle is the so-called lipid storage droplet (LD). Although ubiquitous, LDs share a simple structure composed of a hydrophobic core that harbors the storage lipids, which is shielded by a droplet-specific phospholipid monolayer to which proteins are attached. The current model of LD biogenesis involves an incorporation of the lipid core into the membrane leaflets of the endoplasmic reticulum (ER) followed by a subsequent budding-like maturation of a LD, which ultimately pinches off. Once released, LD volume can increase by localized lipogenesis or fusion of existing droplets. Storage lipids are re-mobilized enzymatically by lipase activity. Lipase regulation in the adipocyte is heavily studied and involves multiple components including catecholamine signaling, the LD-associated proteins Perilipin and comparative gene identification-58 (CGI-58) and at least two lipases named hormone sensitive lipase (HSL) and adipocyte triglyceride lipase (ATGL). LD regulation outside of the adipocyte is poorly understood and only few components are known. However, there is an urgent need to learn more about ectopic fat depots as mislocalized storage of lipids, for example in the liver or muscle, is an eminent health problem associated with insulin resistance or the metabolic syndrome. We developed a laser-scanning cytometer assay to enable 1,536-well screening and combined the results of the small molecules screen with an RNAi database based on lipid storage. In this assay we tested analogs of the probe against a mammalian cell line (3T3L1), to see if these small molecules could disrupt lipid storage. NIH Molecular Libraries Probe Production Centers Network [MLPCN] NIH Chemical Genomics Center [NCGC] MLPCN Grant: MH085686 Assay Submitter (PI): Mathias Beller, Max-Planck-Institut fur Biophysikalische Chemie\n3T3L1 cells were obtained from ATCC (CL-173). 4 uL of cells at 1.25 X 105 cell/mL were dispensed into 1536 well Poly-D-Lysine coated black with clear bottom imaging plates (Corning, #7356) to obtain 500 cells/well, and cultured at 37 °C, 95% humidity, and 5% CO2 overnight. The culture medium used was OPTI-MEM containing 5% fetal bovine serum (FBS). Triacsin C (Sigma-Aldrich T-4540), an inhibitor of long-chain fatty acyl CoA synthetase that blocks synthesis of triglycerides, was used as a positive control for lipid under-storage. A total of 23 nL of compounds dissolved in DMSO at different concentrations were transferred to the assay plates using a Kalypsys 1536-pin tool, the final DMSO concentration was 0.46%. One microliter of oleic acid at 400 uM (Calbiochem, #4954) was added to induce lipid droplet formation in the cells, and the plates were lidded. After 18-24 hours of incubation at 37 °C, 95% humidity, and 5% CO2, cells were fixed (8 % paraformaldehyde in PBS, 30 min, room temperature), washed three times with PBS, then stained for lipid droplet and nucleus using 4uL of PBS solution containing BODIPY lipid dye 493/503 (1:2000 dilution, Life Technologies, #3922) and Hoechst 33342 (1:1000, Life Technologies, #H3570) with Washer dispenser EL406(Biotek). Images were acquired using InCell 2000 (GE). Number of cells, number of lipids and sizes of lipids were analysis using GE Investigator software.", "values": [
      {"smiles": "CC1(C)CCC(c2ccc(Cl)cc2)=C(CN2CCN(c3ccc(C(=O)NS(=O)(=O)c4ccc(N[C@H](CCN5CCOCC5)CSc5ccccc5)c(S(=O)(=O)C(F)(F)F)c4)cc3)CC2)C1", "Potency": "inconclusive: 37200 nM [inhibitor, single point]"},
      {"smiles": "CCOC(=O)C1CCN(C(=O)C(C)(C)NC(=O)Nc2ccccc2Cl)CC1", "Potency": "inconclusive: 2350 nM [inhibitor, full curve, poor fit]"},
      {"smiles": "CCOc1ccc(CCNC(=O)c2ccccn2)cc1OCC", "activity change, negative = decreased lipid storage": "inactive: -36%"},
      {"smiles": "CCOc1ccc(CCNC(=O)c2cc3ccccc3o2)cc1OCC", "Potency": "inconclusive: 418 nM [inhibitor, full curve, poor fit]"},
      {"smiles": "CCOc1ccc(CCNC(=O)c2ccc3ccccc3n2)cc1OCC", "Potency": "inconclusive: 1050 nM [inhibitor, full curve]"},
      {"smiles": "CCOc1ccc(CCNC(=O)c2cc3sccc3n2CC=C(C)C)cc1OCC", "Potency": "active: 833 nM"},
      {"smiles": "O=C(O)c1cccc(-c2noc(-c3ccccc3F)n2)c1", "Potency": "active: 2640 nM"},
      {"smiles": "CCOc1ccc(CCNC(=O)c2cc3ccccc3n2Cc2cc(C)cc(C)n2)cc1OCC", "Potency": "inconclusive: 18.7 nM [inhibitor, full curve, poor fit]"},
      {"smiles": "CC(C)(C)OC(=O)N1CCCCC1C(=O)NC1CCCc2c1cnn2-c1ccc(F)cc1F", "note": "(stereo not given)", "Potency": "inconclusive: 2350 nM [inhibitor, partial curve, poor fit]"},
      {"smiles": "CCOc1ccc(CCNC(=O)c2ccnn2Cc2cccc(C)c2)cc1OCC", "Potency": "inconclusive: 52.6 nM [inhibitor, full curve]"},
      {"smiles": "CCOC(=O)C1CCN(C(=O)C(C)(C)NC(=O)Nc2ccc(-c3ccccc3)cc2)CC1", "Potency": "inconclusive: 18700 nM [inhibitor, partial curve, poor fit]"},
      {"smiles": "O=C(NCCc1ccc(OCC(F)(F)F)c(OCC(F)(F)F)c1)c1cc2sccc2n1Cc1ccccc1", "Potency": "inconclusive: 166 nM [inhibitor, full curve]"},
      {"smiles": "CCOC(=O)C1CCN(C(=O)C2(NC(=O)Nc3ccccc3Cl)CC2)CC1", "activity change, negative = decreased lipid storage": "inactive: -13.9%"},
      {"smiles": "CCOc1ccc(CCNC(=O)c2cccs2)cc1OCC", "Potency": "inconclusive: 2350 nM [inhibitor, full curve, poor fit]"},
      {"smiles": "CCOc1ccc(CCNC(=O)c2cccc(C(=O)c3ccccc3)c2)cc1OCC", "Potency": "inconclusive: 264 nM [inhibitor, full curve]"},
      {"smiles": "CCOc1ccc(CCNC(=O)C2CCCCC2)cc1OCC", "Potency": "inconclusive: 1050 nM [inhibitor, full curve, poor fit]"},
      {"smiles": "CCOc1ccc(CCNC(=O)c2cc3sccc3n2Cc2ccncc2)cc1OCC", "Potency": "inconclusive: 74.3 nM [inhibitor, full curve]"},
      {"smiles": "COc1nc(-c2ccc3c(c2)OCO3)n(-c2ccc(NC(=O)CSc3ccccc3)cc2)n1", "activity change, negative = decreased lipid storage": "inactive: 6.57%"},
      {"smiles": "CCOc1ccc(CCNC(=O)c2cc3sccc3n2CCN2CCOCC2)cc1OCC", "Potency": "inconclusive: 148 nM [inhibitor, full curve]"},
      {"smiles": "CCOc1ccc(CCNC(=O)c2cnon2)cc1OCC", "activity change, negative = decreased lipid storage": "inactive: -17.2%"},
      {"smiles": "CCOC(=O)C1CCN(C(=O)C(C)(C)NC(=O)Nc2cccc(OC)c2)CC1", "Potency": "inconclusive: 14800 nM [inhibitor, partial curve, poor fit]"},
      {"smiles": "CCOc1cc(F)c(CCNC(=O)c2cc3sccc3n2Cc2ccccc2)cc1OCC", "Potency": "active: 14.8 nM"},
      {"smiles": "CCOc1ccc(CCNC(=O)c2cc3sccc3n2Cc2ccccc2)c(F)c1OCC", "Potency": "active: 526 nM"},
      {"smiles": "O=C(N[C@H]1CCCc2c1cnn2-c1ccc(F)cc1F)c1ccccn1", "activity change, negative = decreased lipid storage": "inactive: 98.8%"},
      {"smiles": "CCOc1ccc(CCNC(=O)C2(c3ccccc3)CC2)cc1OCC", "Potency": "inconclusive: 3720 nM [inhibitor, full curve]"},
      {"smiles": "CCOC(=O)C1CCN(C(=O)C(C)(C)NC(=O)Nc2ccc([N+](=O)[O-])cc2)CC1", "activity change, negative = decreased lipid storage": "inactive: 3.82%"},
      {"smiles": "O=C(NCCc1ccc(O)c(O)c1)c1cc2sccc2n1Cc1ccccc1", "activity change, negative = decreased lipid storage": "inactive: 7.56%"},
      {"smiles": "COc1cccc(-n2ncc3c2CCCC3NC(=O)c2ccccn2)c1", "note": "(stereo not given)", "Potency": "inconclusive: 37200 nM [inhibitor, single point]"},
      {"smiles": "CN(C)Cc1ccc(-c2nc3cccc4c3n2CCNC4=O)cc1", "activity change, negative = decreased lipid storage": "inactive: -43.8%"},
      {"smiles": "CCOc1cc2c(cc1OCC)CN(C(=O)c1cc3sccc3n1Cc1ccccc1)CC2", "Potency": "inconclusive: 41.8 nM [inhibitor, full curve]"},
      {"smiles": "CCOC(=O)C1CCN(C(=O)C(C)(C)NC(=O)Nc2ccc(Oc3ccccc3)cc2)CC1", "Potency": "inconclusive: 3720 nM [inhibitor, full curve, poor fit]"},
      {"smiles": "Cc1cn(-c2cc(NC(=O)c3ccc(C)c(Nc4nccc(-c5cccnc5)n4)c3)cc(C(F)(F)F)c2)cn1", "activity change, negative = decreased lipid storage": "inactive: -41.8%"},
      {"smiles": "CCN(CC)C(=O)C1CCN(C(=O)C(C)(C)NC(=O)Nc2ccccc2Cl)CC1", "activity change, negative = decreased lipid storage": "inconclusive: -53.1% [inhibitor]"},
      {"smiles": "O=C(NC1CCCc2c1cnn2-c1ccc(F)cc1F)c1ccncc1", "note": "(stereo not given)", "activity change, negative = decreased lipid storage": "inactive: 63.1%"},
      {"smiles": "CCOc1ccc(CCNC(=O)c2cc3sccc3n2Cc2ccccc2)cc1OCC", "Potency": "inconclusive: 23.5 nM [inhibitor, full curve]"},
      {"smiles": "CCOc1ccc(CCNC(=O)c2cc3sccc3n2C(C)C)cc1OCC", "Potency": "active: 29.6 nM"},
      {"smiles": "CCOC(=O)C1CCN(C(=O)C(C)(C)NC(=O)Nc2ccc3sccc3c2)CC1", "activity change, negative = decreased lipid storage": "inactive: -36.1%"},
      {"smiles": "CCOC(=O)C1CCN(C(=O)C(C)(C)NC(=O)Nc2cccc(-c3csc(C)n3)c2)CC1", "activity change, negative = decreased lipid storage": "inactive: -27.4%"},
      {"smiles": "Cn1c(=O)n(-c2ccc(C(C)(C)C#N)cc2)c2c3cc(-c4cnc5ccccc5c4)ccc3ncc21", "Potency": "inconclusive: 11.8 nM [inhibitor, full curve, poor fit]"},
      {"smiles": "CCOC(=O)C1CCN(C(=O)C2(NC(=O)Nc3ccc(F)cc3F)CCCCC2)CC1", "Potency": "inconclusive: 2090 nM [inhibitor, full curve, poor fit]"}
    ]}
  ]
}
